No constants are given. Whether binding was seen depends on the method and setting. Binding can be weak; no strength is given. Tags and fused reporters may be left off the sequences shown. For some assays here: In cells and extracts the contact can be indirect.
Key:
[1] = target: T1, MAB-10::spGFPC (C. elegans) (UniProt Q22002); assay: split reporter; split GFP: spGFPN on DDX-23 and spGFPC on MAB-10, both expressed from the seam cell promoter P_(ceh-16) in living C. elegans; confocal imaging
T1 sequence: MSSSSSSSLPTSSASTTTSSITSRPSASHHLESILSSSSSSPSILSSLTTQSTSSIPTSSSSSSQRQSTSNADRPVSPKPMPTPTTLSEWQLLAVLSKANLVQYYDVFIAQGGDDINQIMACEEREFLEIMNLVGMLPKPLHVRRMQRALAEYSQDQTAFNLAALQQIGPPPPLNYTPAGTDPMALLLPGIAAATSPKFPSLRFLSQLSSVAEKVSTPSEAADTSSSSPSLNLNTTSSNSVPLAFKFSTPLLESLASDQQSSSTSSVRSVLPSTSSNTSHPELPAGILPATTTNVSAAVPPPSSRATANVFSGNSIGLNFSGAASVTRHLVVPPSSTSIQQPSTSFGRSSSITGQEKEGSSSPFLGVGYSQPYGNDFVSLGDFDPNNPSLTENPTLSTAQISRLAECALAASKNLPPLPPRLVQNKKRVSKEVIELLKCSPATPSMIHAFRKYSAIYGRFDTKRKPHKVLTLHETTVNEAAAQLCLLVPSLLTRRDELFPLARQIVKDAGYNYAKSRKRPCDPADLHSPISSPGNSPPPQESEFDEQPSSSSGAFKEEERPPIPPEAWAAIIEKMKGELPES

[2] = target: T2, MAB-10 protein fused to the GAL4 DNA-binding domain (C. elegans) (UniProt Q22002); assay: two-hybrid; yeast Y2HGold, pGADT7 and pGBKT7 fusions; spot assay on SD/-Leu/-Trp/-His/-Ade plates with 10 mM 3-AT, 2 days at 30 °C
T2 sequence: T1 sequence

Substance | binding [1] | binding [2]
DDX-23::spGFPN (C. elegans) | binds | –
DDX-23 protein fused to the GAL4 activation domain (from UniProt Q95QN2) | – | binds

Source: PMC10584935
